PubChem BioAssay AID1224828 | NIAID – 2016
Shown is an unselected part of about 17,000 deposited reagents. 762 of them (4.5%) count as active. 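Active calls include both raised and lowered p65 entry, mostly lowered; wells with fewer than 50 cells lack a z-score.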 Raw values are not corrected between plates. A reagent listed more than once was tested more than once; the source does not tell the runs apart. No sequences are given here.

Purpose: 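Find genes required for NF-kappaB p65 moving into the nucleus after LPS in mouse macrophages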 (primary screen)
Cells: mouse RAW264.7 G9 macrophage reporter cells (GFP-p65, Tnf promoter-mCherry)
Knock-down reagent: siRNA pool against mouse genes, 100 nM
Time to read-out: 2 days siRNA transfection, then 40 min LPS before fixation
Challenge: LPS (Salmonella minnesota R595) at 10 ng/ml
Measurement: 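Microscopy ratio of nuclear to perinuclear-ring GFP-p65 signal, scaled to the plate median; gene score is the average of two replicate robust z-scores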
Scale: p65 translocation robust z-score: higher = more nuclear NF-kappaB p65 after LPS than the plate median; nuclear/cytoplasmic p65 ratio: higher = more nuclear NF-kappaB p65
Active means: 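Active if robust z is above 3.3 (negative regulators) or below -1.56, the Tlr4 control median (positive regulators); activity score 50 or more; control wells not called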
Meaning of the calls: active = hit (p65 shift raised or lowered); inactive = no clear change

no.	gene	p65 translocation robust z-score	nuclear/cytoplasmic p65 ratio, rep 1	nuclear/cytoplasmic p65 ratio, rep 2	low cell count flag	Call
1	Dynlt2b	0.63	1.64	1.52	enough cells to score	inactive
2	C1ql1	0.69	1.51	1.64	enough cells to score	inactive
3	Or12j3	1.82	1.69	1.34	enough cells to score	inactive
4	Cd34	0.32	1.51	1.42	enough cells to score	inactive
5	Pag1	-1.29	1.48	1.31	enough cells to score	inactive
6	Rnf167	1.2	1.49	1.65	enough cells to score	inactive
7	Kdelr2	0.82	1.6	1.47	enough cells to score	inactive
8	Trim17		1.33	1.17	fewer than 50 cells per well; well left out of scoring	inactive
9	Fam120c	0.83	1.61	1.29	enough cells to score	inactive
10	Epb41l3	-0.39	1.58	1.37	enough cells to score	inactive
11	Spata7	-1.02	1.41	1.57	enough cells to score	inactive
12	Cfap68	0.15	1.45	1.58	enough cells to score	inactive
13	Prdm2	0.82	1.76	1.71	enough cells to score	inactive
14	Nup155	-0.17	1.78	1.43	enough cells to score	inactive
15	Pcdhb13	-0.14	1.37	1.45	enough cells to score	inactive
16	Krt6a	-1.35	1.22	1.28	enough cells to score	inactive
17	Cux2	-1.4	1.38	1.55	enough cells to score	inactive
18	Hmgn3	-0.62	1.37	1.28	enough cells to score	inactive
19	Tsc22d1	-1.21	1.4	1.29	enough cells to score	inactive
20	Cyth1	-0.44	1.44	1.35	enough cells to score	inactive
21	Recql5	0.14	1.48	1.59	enough cells to score	inactive
22	Cd163	-2.47	1.15	1.07	enough cells to score	active
23	Pcdhb21		2.01	1.35	fewer than 50 cells per well; well left out of scoring	inactive
24	Scyl3	0.96	1.69	1.51	enough cells to score	inactive
25	Scyl3		1.14	1.24	fewer than 50 cells per well; well left out of scoring	inactive
26	Il36b	0.01	1.52	1.34	enough cells to score	inactive
27	Gsg1	-1.22	1.46	1.37	enough cells to score	inactive
28	Upf1	-1.02	1.4	1.35	enough cells to score	inactive
29	Spty2d1	-0.54	1.25	1.44	enough cells to score	inactive
30	Cyb5r2	1.86	1.8	1.53	enough cells to score	inactive
31	Sorcs3	0.83	1.7	1.65	enough cells to score	inactive
32	Tsen15	-0.73	1.32	1.31	enough cells to score	inactive
33	Rad51b	-0.45	1.36	1.13	enough cells to score	inactive
34	Zfp819		1.27	1.12	fewer than 50 cells per well; well left out of scoring	inactive
35	Prss46	-0.23	1.31	1.44	enough cells to score	inactive
36	Serac1	0.23	1.53	1.2	enough cells to score	inactive
37	Lcor	-0.96	1.57	1.5	enough cells to score	inactive
38	Plpp7	0.17	1.58	1.58	enough cells to score	inactive
39	Amdhd2	-0.19	1.59	1.58	enough cells to score	inactive
40	Rab39a	0.03	1.23	1.22	enough cells to score	inactive
41	H2-M10.6	2.98	2.05	2.02	enough cells to score	inactive
42	Ccl21a	-0.23	1.74	1.35	enough cells to score	inactive
43	Rmi1	1.25	1.41	1.45	enough cells to score	inactive
44	Fbxw7	0.27	1.38	1.39	enough cells to score	inactive
45	Hpse	-1.5	1.41	1.33	enough cells to score	inactive
46	Ccng1	-1.11	1.29	1.24	enough cells to score	inactive
47	Mtbp	0.18	1.46	1.37	enough cells to score	inactive
48	Or4f59	0.79	1.63	1.61	enough cells to score	inactive
49	Ca7	-0.94	1.45	1.63	enough cells to score	inactive
50	Or4f58	-1.52	1.39	1.22	enough cells to score	inactive
51	Josd2	-0.35	1.39	1.5	enough cells to score	inactive
52	Stkld1	0.21	1.72	1.42	enough cells to score	inactive
53	2810428J06Rik	2.89	1.63	1.34	enough cells to score	inactive
54	Gpr4	-1.74	1.25	1.34	enough cells to score	active
55	6030443O07RIK		1.34	1.42	fewer than 50 cells per well; well left out of scoring	inactive
56	Exd2	0.03	1.56	1.83	enough cells to score	inactive
57	Or4c107	-2.07	1.38	1.24	enough cells to score	active
58	Mrpl42		1.12	1.31	fewer than 50 cells per well; well left out of scoring	inactive
59	1700001G17Rik	-0.46	1.36	1.34	enough cells to score	inactive

Entries above whose target name starts with P or p:
gene	p65 translocation robust z-score	nuclear/cytoplasmic p65 ratio, rep 1	nuclear/cytoplasmic p65 ratio, rep 2	low cell count flag	Call
Pag1	-1.29	1.48	1.31	enough cells to score	inactive
Prdm2	0.82	1.76	1.71	enough cells to score	inactive
Pcdhb13	-0.14	1.37	1.45	enough cells to score	inactive
Pcdhb21		2.01	1.35	fewer than 50 cells per well; well left out of scoring	inactive
Prss46	-0.23	1.31	1.44	enough cells to score	inactive
Plpp7	0.17	1.58	1.58	enough cells to score	inactive
